The list does not hold the whole screen: it is rich in T/C values a quarter to a half above the control, in often repeated tests (any T/C) and in doses without a T/C. Further doses and runs are listed elsewhere. T/C gives the treated animals as a percentage of the vehicle group. Some entries give survivors of the animals treated and no T/C: the source holds a T/C of zero for them, seemingly a mark for toxic or unscored doses. Some doses without a T/C left all or most animals alive at the check, yet need not have been tolerated: survival well below the control is almost never listed, so the zero probably covers shortened survival too. Counts of survivors are from the toxicity check (mostly the fifth day) where no day follows; animals may have died later. Schedule codes are those of the source, read here as Q, the interval in days (D) or hours (H), X, the number of doses. Some entries were tested several times; the results are listed from low to high. Some molecules as drawn cover several salts, stereoisomers or complexes of the source; a dose is that of the sample tested. Where survival is the endpoint, this PubChem deposit counts one and a half times the control or more as active, and values a quarter to a half above the control carry no call in these data; other NCI protocols may use other cut-offs. Some T/C values are followed by the survivors on the day toxicity was checked, most often the fifth; where none is given, no animal had died by that day.
System: L1210 leukemia ip in BDF1 mice, survival T/C
Assay: NCI In Vivo Anticancer Drug Screen. Data for tumor model L1210 Leukemia (intraperitoneal) in B6D2F1 (BDF1) mice
Conditions: T/C endpoint: mean survival time, higher T/C = longer survival
[1] = dose: 200.0 mg/kg/injection, schedule: Q04DX002 (ip), vehicle: saline with Tween-80
[2] = dose: 400.0 mg/kg/injection, schedule: Q04DX002 (ip), vehicle: saline with Tween-80
[3] = dose: 400.0 mg/kg/injection, schedule: Q01DX009 (ip), vehicle: saline with Tween-80
[4] = dose: 50.0 mg/kg/injection, schedule: Q01DX009 (ip), vehicle: Klucel (hydroxypropylcellulose) (HPC)
[5] = dose: 200.0 mg/kg/injection, schedule: Q01DX001 (ip), vehicle: saline
[6] = dose: 400.0 mg/kg/injection, schedule: Q01DX001 (ip), vehicle: saline
[7] = dose: 400.0 mg/kg/injection, schedule: Q04DX003 (ip), vehicle: saline with Tween-80
[8] = dose: 100.0 mg/kg/injection, schedule: Q04DX003 (ip), vehicle: Klucel (hydroxypropylcellulose) (HPC)
[9] = dose: 200.0 mg/kg/injection, schedule: Q01DX009 (ip), vehicle: saline with Tween-80
[10] = dose: 400.0 mg/kg/injection, schedule: Q04DX003 (ip), vehicle: saline
[11] = dose: 200.0 mg/kg/injection, schedule: Q04DX003 (ip), vehicle: saline with Tween-80
[12] = dose: 200.0 mg/kg/injection, schedule: Q04DX002 (ip), vehicle: Klucel (hydroxypropylcellulose) (HPC)
[13] = dose: 400.0 mg/kg/injection, schedule: Q04DX002 (ip), vehicle: Klucel (hydroxypropylcellulose) (HPC)

## Fc1c(F)c(F)[c]([Hg][c]2c(F)c(F)c(F)c(F)c2F)c(F)c1F
dose: 50.0 mg/kg/injection, schedule: Q04DX002 (ip), vehicle: saline with Tween-80
  survivor count: 3 of 3
dose: 100.0 mg/kg/injection, schedule: Q04DX002 (ip), vehicle: saline with Tween-80
  survivor count: 0 of 3
[1]
  survivor count: 0 of 3
[2]
  survivor count: 0 of 3

## O=C1CC(c2c[nH]c3nccnc23)NN1 (stereo not drawn)
dose: 25.0 mg/kg/injection, schedule: Q01DX009 (ip), vehicle: water
  survivor count: 3 of 6
dose: 50.0 mg/kg/injection, schedule: Q01DX009 (ip), vehicle: water
  survivor count: 5 of 6
dose: 100.0 mg/kg/injection, schedule: Q01DX009 (ip), vehicle: water
  survivor count: 6 of 6
dose: 200.0 mg/kg/injection, schedule: Q01DX009 (ip), vehicle: water
  survivor count: 5 of 6
dose: 400.0 mg/kg/injection, schedule: Q01DX009 (ip), vehicle: water
  survivor count: 3 of 6

## Cc1c(Cl)cccc1NS(=O)(=O)c1cccc([N+](=O)[O-])c1
[3]
  survivor count: 6 of 6

## O=C(C[n+]1cccc2ccccc21)c1ccc([N+](=O)[O-])cc1
[1]
  survivor count: 1 of 3
[2]
  survivor count: 0 of 3

## CCOC(=O)c1cn[nH]c1/N=N/N(C)C
dose: 72.0 mg/kg/injection, schedule: Q01DX009 (ip), vehicle: carboxymethylcellulose (CMC)
  T/C: 126 % of control
dose: 120.0 mg/kg/injection, schedule: Q01DX009 (ip), vehicle: carboxymethylcellulose (CMC)
  T/C: 134 % of control
dose: 200.0 mg/kg/injection, schedule: Q01DX009 (ip), vehicle: carboxymethylcellulose (CMC)
  T/C: 135 % of control [4 of 6 alive]
dose: 400.0 mg/kg/injection, schedule: Q01DX001 (ip), vehicle: carboxymethylcellulose (CMC)
  T/C: 141 % of control
dose: 600.0 mg/kg/injection, schedule: Q01DX001 (ip), vehicle: carboxymethylcellulose (CMC)
  T/C: 129 % of control

## Nc1ccc(Oc2ccc(Cl)cc2)c(Cl)c1
[3]
  survivor count: 3 of 6

## O=C(O)COc1ccc(F)cc1Cl
[4]
  survivor count: 0 of 6

## CCOC(=O)c1cnc2ccccc2c1Cl
[5]
  survivor count: 6 of 6
[6]
  survivor count: 6 of 6

## COc1cc(-c2[o+]c3cc(O)cc(O)c3cc2OC2OC(CO)C(O)C(O)C2O)cc(OC)c1O (stereo not drawn)
dose: 200.0 mg/kg/injection, schedule: Q04DX003 (ip), vehicle: saline sonified
  survivor count: 6 of 6
dose: 400.0 mg/kg/injection, schedule: Q04DX003 (ip), vehicle: saline sonified
  survivor count: 4 of 6

## CN(N=Nc1ccc(C(N)=O)cc1)C1CCCCC1
dose: 400.0 mg/kg/injection, schedule: Q01DX001 (ip), vehicle: other
  survivor count: 0 of 4

## COc1ccc(C(CC(=O)c2ccccc2)SCCN2CCOCC2)cc1 (stereo not drawn)
[7]
  survivor count: 4 of 6

## CN(C)C1c2cccn2-c2ccccc2S(=O)(=O)C1c1ccccc1[N+](=O)[O-] (stereo not drawn)
[8]
  survivor count: 6 of 6

## C#CCNCc1ccccc1
[9]
  survivor count: 0 of 6 and 1 of 3
dose: 400.0 mg/kg/injection, schedule: Q04DX002 (ip), vehicle: saline
  survivor count: 0 of 3 and 0 of 6
[10]
  survivor count: 2 of 6

## NS(=O)(=O)c1ccc(NC(=S)NC(=O)c2cccc([N+](=O)[O-])c2)cc1
[11]
  survivor count: 6 of 6

## CC1(C)N=C(N)N=C(N)N1c1cccc(CCCCc2ccc(Cl)cc2Cl)c1
dose: 40.0 mg/kg/injection, schedule: Q01DX001 (ip), vehicle: saline
  survivor count: 2 of 4
dose: 50.0 mg/kg/injection, schedule: Q01DX001 (ip), vehicle: saline
  survivor count: 2 of 4
dose: 50.0 mg/kg/injection, schedule: Q04DX003 (ip), vehicle: saline with Tween-80
  survivor count: 3 of 6
dose: 80.0 mg/kg/injection, schedule: Q01DX001 (ip), vehicle: saline
  survivor count: 0 of 4
dose: 100.0 mg/kg/injection, schedule: Q01DX001 (ip), vehicle: saline
  survivor count: 0 of 4
[8]
  survivor count: 0 of 6
dose: 100.0 mg/kg/injection, schedule: Q04DX003 (ip), vehicle: saline with Tween-80
  survivor count: 0 of 6 and 1 of 6
[5]
  survivor count: 0 of 4
dose: 200.0 mg/kg/injection, schedule: Q04DX003 (ip), vehicle: Klucel (hydroxypropylcellulose) (HPC)
  survivor count: 1 of 6
[11]
  survivor count: 0 of 6
[6]
  survivor count: 0 of 4
dose: 400.0 mg/kg/injection, schedule: Q04DX003 (ip), vehicle: Klucel (hydroxypropylcellulose) (HPC)
  survivor count: 0 of 6
[7]
  survivor count: 0 of 6

## CC[C@@H]1C[C@H]2CC3c4[nH]c5ccc(OC)cc5c4CCN(C2)C31
dose: 200.0 mg/kg/injection, schedule: Q01DX001 (ip), vehicle: saline with Tween-80
  survivor count: 1 of 3
dose: 400.0 mg/kg/injection, schedule: Q01DX001 (ip), vehicle: saline with Tween-80
  survivor count: 0 of 3

## CC(=O)N1CCC(CC2CCCCC2)CC1
dose: 100.0 mg/kg/injection, schedule: Q04DX003 (ip), vehicle: saline
  survivor count: 6 of 6
dose: 200.0 mg/kg/injection, schedule: Q04DX003 (ip), vehicle: saline
  survivor count: 1 of 6
[10]
  survivor count: 0 of 6

## CCCCCCCCCCCCCCCCSC(=N)N
dose: 400.0 mg/kg/injection, schedule: Q04DX003 (ip), vehicle: carboxymethylcellulose (CMC)
  survivor count: 0 of 6

## C(=NCC(CCN1CCCC1)(CCN1CCCC1)c1cccc2ccccc12)C(CCN1CCCC1)(CCN1CCCC1)c1cccc2ccccc12
dose: 20.0 mg/kg/injection, schedule: Q01DX009 (ip), vehicle: saline with Tween-80
  survivor count: 0 of 6
dose: 25.0 mg/kg/injection, schedule: Q04DX002 (ip), vehicle: saline
  survivor count: 1 of 3
dose: 100.0 mg/kg/injection, schedule: Q01DX009 (ip), vehicle: saline with Tween-80
  survivor count: 0 of 6
[9]
  survivor count: 0 of 6
[3]
  survivor count: 0 of 6

## CCCCCCCCCCCC[n+]1ccc(C#N)cc1
dose: 75.0 mg/kg/injection, schedule: Q01DX001 (ip), vehicle: saline
  survivor count: 0 of 6
dose: 150.0 mg/kg/injection, schedule: Q01DX001 (ip), vehicle: saline
  survivor count: 0 of 6
dose: 300.0 mg/kg/injection, schedule: Q01DX001 (ip), vehicle: saline
  survivor count: 0 of 6

## Brc1cccc[n+]1-c1ccc2cc(-[n+]3ccccc3Br)ccc2c1
dose: 18.75 mg/kg/injection, schedule: Q01DX001 (ip), vehicle: other
  survivor count: 1 of 6
dose: 37.5 mg/kg/injection, schedule: Q01DX001 (ip), vehicle: other
  survivor count: 0 of 6
dose: 75.0 mg/kg/injection, schedule: Q01DX001 (ip), vehicle: other
  survivor count: 0 of 6
dose: 150.0 mg/kg/injection, schedule: Q01DX001 (ip), vehicle: other
  survivor count: 0 of 6
dose: 300.0 mg/kg/injection, schedule: Q01DX001 (ip), vehicle: other
  survivor count: 1 of 6

## NC1CCC(CC2CCCCCC2)CC1 (stereo not drawn)
[4]
  survivor count: 0 of 6
dose: 100.0 mg/kg/injection, schedule: Q01DX009 (ip), vehicle: Klucel (hydroxypropylcellulose) (HPC)
  survivor count: 0 of 6
dose: 200.0 mg/kg/injection, schedule: Q01DX009 (ip), vehicle: Klucel (hydroxypropylcellulose) (HPC)
  survivor count: 0 of 6
dose: 400.0 mg/kg/injection, schedule: Q01DX009 (ip), vehicle: Klucel (hydroxypropylcellulose) (HPC)
  survivor count: 0 of 6

## Nc1nc(N)nc(-c2cccc(Cl)c2)n1
[12]
  survivor count: 0 of 3
[13]
  survivor count: 0 of 3

## NC(CCl)=NCCCN1CCCCC1
[4]
  survivor count: 0 of 3
dose: 100.0 mg/kg/injection, schedule: Q04DX002 (ip), vehicle: Klucel (hydroxypropylcellulose) (HPC)
  survivor count: 0 of 3
[12]
  survivor count: 0 of 3
[13]
  survivor count: 3 of 3

## c1ccc(-c2oc(-c3ccccc3)c(-c3ccccc3)c2-c2ccccc2)cc1
[11]
  survivor count: 3 of 3

— PubChem BioAssay AID248 (DTP/NCI, 2004)
